Laboratory results: patent US6316414A (Dabur Research Foundation, priority 2000, dated 2001)

Assay: general procedure: Fmoc solid-phase peptide synthesis; Rink Amide; DCC or DIPCDI/HOBt or HBTU/HOBT and DIEA
Settings: whole synthesis, scale 0.5 g, one disulfide bridge, sequence written open

Compared with “D-Phe-Cys-Tyr-D-Trp-Lys-Ac5c-Cys-Thr-NH2”, “D-Phe-Cys-Tyr-D-Trp-Lys-Ac5c-Pen-Thr-NH2” is higher in crude mass: 268 mg for the first, 288 mg for the second.

First: D-Phe-Cys-Tyr-D-Trp-Orn-Ac5c-Cys-Thr-NH2
Second: D-Phe-Cys-Tyr-D-Trp-Orn-Ac5c-Pen-Thr-NH2
The crude mass of the first is higher: 326 mg for the first, 236 mg for the second.

Compared with D-Phe-Cys-Tyr-D-Trp-Orn-Aib-Cys-Thr-NH2, D-Phe-Cys-Tyr-D-Trp-Orn-Aib-Pen-Thr-NH2 is lower in crude mass: 325 mg for the first, 218 mg for the second.

Going from D-Phe-Cys-Tyr-D-Trp-Orn-Deg-Cys-Thr-NH2 to D-Phe-Cys-Tyr-D-Trp-Orn-Dpg-Cys-Thr-NH2, the crude mass rises from 268 mg to 339 mg.
